Measured values reported in PMC9985612.
No constants are given. Whether binding was seen depends on the method and setting. In cells and extracts the contact can be indirect. Some binding calls cover weakened binding; strength is not graded here. For some of these results: Sequences can lack the tags named with a protein.

Sequences of proteins named here, by UniProt entry; tags and fusion partners are left off.
UniProt P46940: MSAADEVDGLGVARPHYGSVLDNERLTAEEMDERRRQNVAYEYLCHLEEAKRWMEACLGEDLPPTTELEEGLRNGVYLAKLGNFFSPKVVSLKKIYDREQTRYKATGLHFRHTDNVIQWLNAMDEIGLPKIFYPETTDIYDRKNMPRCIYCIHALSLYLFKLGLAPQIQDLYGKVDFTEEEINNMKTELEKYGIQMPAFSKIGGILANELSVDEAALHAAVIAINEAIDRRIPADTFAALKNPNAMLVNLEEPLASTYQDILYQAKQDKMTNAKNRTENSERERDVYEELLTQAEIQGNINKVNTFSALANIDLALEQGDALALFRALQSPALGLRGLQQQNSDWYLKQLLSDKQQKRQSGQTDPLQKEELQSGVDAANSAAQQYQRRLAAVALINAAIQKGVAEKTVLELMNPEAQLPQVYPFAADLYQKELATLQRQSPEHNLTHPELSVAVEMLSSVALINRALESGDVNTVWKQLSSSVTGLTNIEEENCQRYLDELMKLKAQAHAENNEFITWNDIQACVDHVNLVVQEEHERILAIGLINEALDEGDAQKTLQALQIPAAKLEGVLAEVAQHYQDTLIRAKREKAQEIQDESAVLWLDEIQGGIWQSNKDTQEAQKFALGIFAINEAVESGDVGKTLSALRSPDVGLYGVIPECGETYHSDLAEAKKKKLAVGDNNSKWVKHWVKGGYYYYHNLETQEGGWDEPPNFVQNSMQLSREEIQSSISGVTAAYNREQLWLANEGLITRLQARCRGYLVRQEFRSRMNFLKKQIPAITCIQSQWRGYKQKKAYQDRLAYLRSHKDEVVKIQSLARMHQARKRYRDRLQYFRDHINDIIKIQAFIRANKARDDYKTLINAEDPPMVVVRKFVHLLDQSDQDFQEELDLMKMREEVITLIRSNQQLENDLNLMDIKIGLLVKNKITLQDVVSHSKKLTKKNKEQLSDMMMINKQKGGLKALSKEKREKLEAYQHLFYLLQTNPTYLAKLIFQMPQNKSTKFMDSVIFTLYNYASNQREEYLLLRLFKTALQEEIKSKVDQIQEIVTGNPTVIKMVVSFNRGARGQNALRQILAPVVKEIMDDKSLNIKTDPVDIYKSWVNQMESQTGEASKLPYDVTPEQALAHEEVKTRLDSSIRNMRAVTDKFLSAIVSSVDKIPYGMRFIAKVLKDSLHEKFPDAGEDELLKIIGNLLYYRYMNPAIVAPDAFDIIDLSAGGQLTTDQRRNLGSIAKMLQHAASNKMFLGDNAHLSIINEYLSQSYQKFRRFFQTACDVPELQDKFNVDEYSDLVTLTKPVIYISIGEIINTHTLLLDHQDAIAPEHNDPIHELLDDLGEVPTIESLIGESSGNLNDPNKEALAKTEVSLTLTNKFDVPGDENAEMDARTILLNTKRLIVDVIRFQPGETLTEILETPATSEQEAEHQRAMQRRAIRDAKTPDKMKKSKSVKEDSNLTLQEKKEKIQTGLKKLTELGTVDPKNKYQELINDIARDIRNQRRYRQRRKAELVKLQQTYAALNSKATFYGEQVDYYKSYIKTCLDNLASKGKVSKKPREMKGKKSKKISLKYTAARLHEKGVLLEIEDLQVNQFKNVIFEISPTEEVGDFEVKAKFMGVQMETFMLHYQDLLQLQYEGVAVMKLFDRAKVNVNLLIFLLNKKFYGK

T1: Flag-TRIM56 (tripartite motif containing 56) (UniProt Q9BRZ2)
T1 sequence: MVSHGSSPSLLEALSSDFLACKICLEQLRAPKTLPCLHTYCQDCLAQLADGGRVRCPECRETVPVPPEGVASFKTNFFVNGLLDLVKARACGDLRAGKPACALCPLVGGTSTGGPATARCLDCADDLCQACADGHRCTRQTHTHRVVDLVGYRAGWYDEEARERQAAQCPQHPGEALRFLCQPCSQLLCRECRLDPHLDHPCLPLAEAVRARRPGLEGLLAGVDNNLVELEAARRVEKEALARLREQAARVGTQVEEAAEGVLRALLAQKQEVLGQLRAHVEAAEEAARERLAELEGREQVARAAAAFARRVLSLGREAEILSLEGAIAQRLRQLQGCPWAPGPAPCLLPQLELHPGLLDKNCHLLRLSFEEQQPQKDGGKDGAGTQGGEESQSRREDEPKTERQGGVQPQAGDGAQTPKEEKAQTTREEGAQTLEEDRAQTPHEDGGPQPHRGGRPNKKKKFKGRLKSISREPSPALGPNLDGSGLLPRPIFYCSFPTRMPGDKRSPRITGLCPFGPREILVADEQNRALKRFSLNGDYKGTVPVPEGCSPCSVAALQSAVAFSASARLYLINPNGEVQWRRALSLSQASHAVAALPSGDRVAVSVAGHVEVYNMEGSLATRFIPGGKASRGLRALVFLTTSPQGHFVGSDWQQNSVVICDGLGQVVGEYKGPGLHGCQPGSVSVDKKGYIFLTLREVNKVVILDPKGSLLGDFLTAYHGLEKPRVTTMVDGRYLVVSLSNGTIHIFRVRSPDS

B1: TRIM56 (tripartite motif containing 56), endogenous (protein, UniProt Q9BRZ2 1-755)
chain: T1 sequence
B2: Flag-TRIM56_N (1-250 aa, containing the RING finger domain) (domain or fragment, UniProt Q9BRZ2 1-250)
chain: MVSHGSSPSLLEALSSDFLACKICLEQLRAPKTLPCLHTYCQDCLAQLADGGRVRCPECRETVPVPPEGVASFKTNFFVNGLLDLVKARACGDLRAGKPACALCPLVGGTSTGGPATARCLDCADDLCQACADGHRCTRQTHTHRVVDLVGYRAGWYDEEARERQAAQCPQHPGEALRFLCQPCSQLLCRECRLDPHLDHPCLPLAEAVRARRPGLEGLLAGVDNNLVELEAARRVEKEALARLREQAAR
B3: Flag-TRIM56_C (251-755 aa) (domain or fragment, UniProt Q9BRZ2 251-755)
chain: VGTQVEEAAEGVLRALLAQKQEVLGQLRAHVEAAEEAARERLAELEGREQVARAAAAFARRVLSLGREAEILSLEGAIAQRLRQLQGCPWAPGPAPCLLPQLELHPGLLDKNCHLLRLSFEEQQPQKDGGKDGAGTQGGEESQSRREDEPKTERQGGVQPQAGDGAQTPKEEKAQTTREEGAQTLEEDRAQTPHEDGGPQPHRGGRPNKKKKFKGRLKSISREPSPALGPNLDGSGLLPRPIFYCSFPTRMPGDKRSPRITGLCPFGPREILVADEQNRALKRFSLNGDYKGTVPVPEGCSPCSVAALQSAVAFSASARLYLINPNGEVQWRRALSLSQASHAVAALPSGDRVAVSVAGHVEVYNMEGSLATRFIPGGKASRGLRALVFLTTSPQGHFVGSDWQQNSVVICDGLGQVVGEYKGPGLHGCQPGSVSVDKKGYIFLTLREVNKVVILDPKGSLLGDFLTAYHGLEKPRVTTMVDGRYLVVSLSNGTIHIFRVRSPDS

Columns and labels:
[1] = molecular target: T1, Flag-TRIM56 (tripartite motif containing 56); test: co-IP; anti-Flag antibody, lysate of U251 cells transfected with Flag-TRIM56; Protein A + G magnetic beads, overnight at 4 °C; immunoblot
[2] = molecular target: IQ motif containing GTPase activating protein 1 (IQGAP1), endogenous (human (endogenous in U251 and U87)) (UniProt P46940); test: co-IP; anti-IQGAP1 antibody, lysate of U87 cells, endogenous proteins; Protein A + G magnetic beads, overnight at 4 °C; immunoblot
Myc-IQGAP1 = Myc-IQGAP1 (UniProt P46940); test: co-IP; U251 cells co-transfected with Myc-IQGAP1 and Flag-TRIM56_N, Flag-TRIM56_C or Flag-TRIM56_WT; MG132 10 μM; Protein A + G magnetic beads, overnight at 4 °C; immunoblot

Molecule	binding (Myc-IQGAP1)	other results
IQ motif containing GTPase activating protein 1 (IQGAP1), endogenous (from UniProt P46940 1-1657)	–	binding [1]: binds
B1	–	binding [2]: binds
B2	binds	–
B3	no binding	–
